Results are given in words; binding and its absence hold for the method and conditions named. Some binding calls cover weakened binding; strength is not graded here.
Molecular target: T1, ASGR1 (truncation constructs expressed from plasmids in Huh7 cells) (Homo sapiens (Human)) (UniProt P07306)
T1 sequence: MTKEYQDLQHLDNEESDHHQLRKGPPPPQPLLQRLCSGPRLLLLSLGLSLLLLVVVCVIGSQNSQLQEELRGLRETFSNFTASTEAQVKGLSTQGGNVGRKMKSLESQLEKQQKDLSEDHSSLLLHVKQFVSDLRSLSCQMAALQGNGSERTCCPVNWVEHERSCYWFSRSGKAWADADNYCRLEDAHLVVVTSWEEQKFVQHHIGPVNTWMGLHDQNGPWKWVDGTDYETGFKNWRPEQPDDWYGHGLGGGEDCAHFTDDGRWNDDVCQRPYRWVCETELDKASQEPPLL
Experiment: Western blotting of Huh7 cells transfected with ASGR1 truncation plasmids

binding: binds
B1: ASGR1 neutralizing antibody 4B9 (antibody, V domains shown)
VH: QSLEESGGDLVKPGATMTLTCKASGFSFSGSLWICWVRQAPGKGLEWIACIYVGSSGSTYYASWAKGRFTISTTSSTTVTLQMTSLTAADTATYFCARRYTDAYGGYPAGSFVFKLWGPGTLVTVSS
VL: QVLTQTPSPVSAAVGGTVTINCQASQSVYNNKNLGWYQQKPGQPPKLLIYYASDLASGVPSRFKGSGSGKQFTLTISDVQCDDAATYYCQGEFSCSSADCCAFGGGTEVVVK
